Assay results from paper PMC10681007, “Targeted Degradation of XIAP is Sufficient and Specific to Induce Apoptosis in MYCN-overexpressing High-risk Neuroblastoma” (Cancer Research Communications, 2023).

Amino acid sequences for entries named in this document (tags omitted).
UniProt P98170, whole entry: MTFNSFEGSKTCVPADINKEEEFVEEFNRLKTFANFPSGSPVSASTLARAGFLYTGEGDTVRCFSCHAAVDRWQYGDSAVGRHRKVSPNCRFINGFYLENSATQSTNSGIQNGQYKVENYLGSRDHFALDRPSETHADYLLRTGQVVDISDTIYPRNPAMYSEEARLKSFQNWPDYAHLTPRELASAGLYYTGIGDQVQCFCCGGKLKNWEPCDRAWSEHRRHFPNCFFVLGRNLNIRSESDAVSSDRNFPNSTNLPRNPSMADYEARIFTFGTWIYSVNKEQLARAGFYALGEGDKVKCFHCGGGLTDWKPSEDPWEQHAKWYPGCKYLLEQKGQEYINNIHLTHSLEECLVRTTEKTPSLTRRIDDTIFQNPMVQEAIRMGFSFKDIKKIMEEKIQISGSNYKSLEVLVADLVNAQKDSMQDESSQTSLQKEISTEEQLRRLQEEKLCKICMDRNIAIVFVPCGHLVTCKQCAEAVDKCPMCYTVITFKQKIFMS

Biological target: XIAP (Homo sapiens, UniProt P98170)
Experiment: XIAP expression in tumors harvested from A4-treated PDXs (immunoblot densitometry)
Conditions: tumor
Protocol: FIGURE 4 Treatment with XIAP-specific antagonist A4 prolongs and improves overall survival in high-risk neuroblastoma PDXs. A, Top, Immunoblot analysis of XIAP, cleaved PARP and cleaved caspase-3 expression in tumors harvested from treated neuroblastoma PDXs. Neuroblastoma PDXs were treated with 10 mg/kg A4 via intraperitoneal injection. Tumors were harvested over the following time courses of 0, 0.5, 1, 2, 4, 24, and 48 hours after dosing. β-actin is used as internal control. Bottom, Graphical representation of densitometry ratio for XIAP expression normalized to β-actin in tumors harvested from neuroblastoma PDXs as described in A (Supplementary Data S2). Values were expressed as mean ± SD with n = 3/timepoint. B, Kaplan–Meier survival plot of MYCN-amplified neuroblastoma PDXs (n = 9/treatment group). […] The mice were monitored over a period of 7 weeks, including 4 weeks of stabilizing implantation and subsequent 3 weeks of treatment period. log-rank (Mantel–Cox test) derived from Kaplan–Meier survival plot was used for statistical comparisons between groups with *, P < 0.05. […]
Whole cell lysates harvested were lysed in EBC buffer (pH 8.0 of 50 mM Tris, 0.5% NP-40, 120 mM sodium chloride) containing protease inhibitors and protein concentration were quantified using the Bradford assay (Thermo Fisher Scientific). […]

COC(=O)c1[nH]c2ccc(Cl)cc2c1NC(=O)CN1CCN(Cc2ccccc2)CC1
XIAP/B-actin relative to 0 h, single sets M1, M2, M3 (2 h after 10 mg/kg i.p.): 0.7418, 1.818, 0.8734
XIAP/B-actin relative to 0 h, single sets M1, M2, M3 (4 h after 10 mg/kg i.p.): 0.1947, 1.073, 0.6027

For part of its entries the source gives two or more results. They are shown here; other results are not. There may be further records. Results that share an entry seem to repeat one measurement; a mean can stand among them.
